# Out of some 2,100 compounds screened, about 590 (28%) were called active. The shares of active, inactive and inconclusive entries below differ from those in the screen. The call rests on the fitted dose curve; in most records, active means well fitted inhibition curve with a large enough effect; inconclusive means small, poorly fitted or top-dose-only effect; inactive means flat fitted curve, though single readings scatter. A potency beside an inconclusive call is a rough fit, not a confirmed value.
# The chains behind the UniProt entries cited, without tags or fusion partners. Where a name states a change or a piece, a line headed by the entry shows the natural chain unless it says otherwise.
# UniProt Q8IUX4: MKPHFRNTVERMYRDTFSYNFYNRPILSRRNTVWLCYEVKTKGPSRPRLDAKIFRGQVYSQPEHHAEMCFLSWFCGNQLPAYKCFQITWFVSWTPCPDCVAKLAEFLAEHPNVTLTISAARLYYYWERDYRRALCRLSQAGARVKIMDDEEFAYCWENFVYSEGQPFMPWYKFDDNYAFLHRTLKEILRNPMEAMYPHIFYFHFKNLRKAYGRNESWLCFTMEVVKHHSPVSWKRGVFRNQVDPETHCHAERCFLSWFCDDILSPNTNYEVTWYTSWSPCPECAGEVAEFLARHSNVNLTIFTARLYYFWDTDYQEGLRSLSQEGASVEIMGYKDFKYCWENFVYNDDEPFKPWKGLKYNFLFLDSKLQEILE
# Target: DNA dC->dU-editing enzyme APOBEC-3F (Homo sapiens) (UniProt Q8IUX4)
# Assay: qHTS for inhibitors of Vif-A3F interactions: Cherry picks; further: nearly all actives have a fitted effect of over 70% in size;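 on max response: % of control where 0% means no effect; active compounds raise eYFP fluorescence by blocking Vif-driven A3F loss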
# Conditions: HeLa A3F-eYFP + Vif (tagged APOBEC3F with the HIV-1 protein that degrades it), eYFP fluorescence, 24 h
# Outline: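 Read-out: yellow fluorescence (ex 488 nm, em 500-530 nm) by laser-scanning cytometer after 24 h compound exposure, several concentrations, at 37 deg C. Cells: HeLa line stably co-expressing Vif and C-terminally eYFP-tagged A3F; MG132 served as positive control.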
# Potency means the concentration at half of the fitted maximal effect.
SMILES,Potency,max response
O=[N+]([O-])c1cc(-c2nc(-c3ccccc3)no2)ccc1NCc1ccco1,active: 8.2 µM,
Cc1cc(C)cc(C(=O)N2CC(=O)Nc3ccccc32)c1,"inconclusive: 0.559 µM [inhibitor, full curve]",
CCN(CC)C(=O)Cn1c(=O)n(-c2ccccc2)c(=O)c2c3c(sc21)CCC3,,inactive: 1.37%
CCCOc1ccc(N)cc1N,,inactive: 4.36%
O=C(N/N=C/c1cccc(F)c1)c1cc(-c2ccco2)nc2ccccc12,"inconclusive: 14 µM [inhibitor, single point]",
CN(C)CCCN(C(=O)/C=C/c1cccs1)c1nc2ccc(F)cc2s1,"inconclusive: 20.6 µM [inhibitor, single point]",
O=C(Nc1nc2ccc(F)cc2s1)c1ccc([N+](=O)[O-])o1,"inconclusive: 25 µM [inhibitor, single point]",
CC(=O)Nc1sc(C)c(C)c1C(=O)OCC(=O)Nc1ccccc1,"inconclusive: 18.4 µM [inhibitor, single point]",
Cc1ccc(S(=O)(=O)c2cc3ccccc3oc2=Nc2ccc3c(c2)OCO3)cc1,,inactive: -1.94%
O=C1CCCN1c1ccc(S(=O)(=O)Nc2ccc3c(c2)OCCO3)cc1,"inconclusive: 8.86 µM [inhibitor, partial curve]",
N#Cc1c(NC(=O)c2ccc([N+](=O)[O-])o2)sc2c1CCC2,,inactive: -22.4%
N#C/C(=C\c1ccc([N+](=O)[O-])o1)c1nc2ccccc2[nH]1,active: 5.17 µM,
Cc1cc(C)n2nc(C(=O)N/N=C/c3c4ccccc4cc4ccccc34)nc2n1,"inconclusive: 22.3 µM [inhibitor, single point]",
Cc1nonc1NC(=O)CSc1nc2c(C)cccc2cc1C#N,active: 18.4 µM,
COc1ccccc1-c1nnc2sc(-c3cc4ccccc4o3)nn12,"inconclusive: 1.4 µM [inhibitor, full curve]",
Cn1c(N)c(-c2ccccc2)c2ccc([N+](=O)[O-])cc2c1=O,active: 4.98 µM,
COc1ccc(-n2nc3c(N4CCCC(C(=O)NCCc5ccccc5C)C4)nnc(C)c3c2C)cc1 (configuration not stated),"inconclusive: 29.1 µM [inhibitor, single point]",
N#CC1=C(N)Oc2cc(N)ccc2C1c1ccccc1F (configuration not stated),"inconclusive: 6.27 µM [inhibitor, partial curve]",
CCCCCn1c(=O)[nH]c2cc(C(=O)Nc3cc(OC)cc(OC)c3)ccc2c1=O,"inconclusive: 23.1 µM [inhibitor, single point]",
Cc1cc(/C=C/c2ccnc3ccccc23)ccc1N(C)C,active: 8.2 µM,
COc1ccccc1/C=C/C=N/n1c(-c2ccc(C)cc2)n[nH]c1=S,,inactive: -22%
COc1cc2c(cc1OC)CN(C(=O)/C=C/c1cccs1)CC2,"inconclusive: 1.25 µM [inhibitor, full curve]",
COC(=O)c1cccc(NS(=O)(=O)c2ccc(OC)cc2)c1C,"inconclusive: 4.44 µM [inhibitor, full curve]",
Cc1cccc(N2CCN(Cc3cn(C)nc3-c3ccccc3F)CC2)n1,"inconclusive: 3.96 µM [inhibitor, full curve]",

SMILES,Potency,max response
O=C(N/N=C/c1ccc2c(c1)OCO2)c1cc(-c2ccco2)nc2ccccc12,"inconclusive: 12.5 µM [inhibitor, partial curve]",
COC(=O)CCS(=O)(=O)c1nc(-c2ccccc2)cc(C(F)(F)F)n1,"inconclusive: 14 µM [inhibitor, single point]",
COc1ccccc1N=C1NC(=O)/C(=C/c2ccc(N(C)C)cc2)S1,active: 4.11 µM,
O=C(/C=C/c1ccco1)N1CCc2ccccc21,"inconclusive: 11.6 µM [inhibitor, partial curve]",
Cc1ccc(C2=NN(C(=O)c3cccs3)C(c3ccccc3O)C2)cc1 (configuration not stated),,inactive: -0.929%
NC(=S)N/N=C\c1ccc(-c2cccc(Cl)c2Cl)o1,,inactive: -18.7%
COc1ccccc1-c1cc(-c2ccccc2)nc(SC(C(N)=O)c2ccccc2)c1C#N (configuration not stated),"inconclusive: 25 µM [inhibitor, single point]",
CC(C)(C)c1ccc(Oc2ccc(NC(=O)c3ccccc3C(=O)O)cn2)cc1,,inactive: 1.93%
N#C/C(=C/c1cccs1)c1ccccn1,active: 17.7 µM,
CCN(CC)c1ccc(C=NNc2ccc([N+](=O)[O-])cn2)cc1,,inactive: -25.4%
Cc1coc(NC(=O)CSc2nc(-c3ccncc3)cc(C(F)(F)F)c2C#N)n1,active: 13 µM,
O=C(CCc1ccccc1)Nc1ccc(Cl)cn1,"inconclusive: 3.53 µM [inhibitor, full curve]",
N#Cc1c(Nc2ccccc2)[n+]([O-])c2ccc(Cl)cc2[n+]1[O-],,inactive: -2.22%
Cc1ccc(/C=N/NC(=O)CCCOc2ccc(Cl)cc2Cl)cc1,,inactive: -27.3%
COC1=C(OC)C(=O)C(Sc2ccc3ccccc3c2)=CC1=O,,inactive: -9.94%
COc1cc(NC(=O)C2=C(N3CCOCC3)/C(=C\c3ccc(N(C)C)cc3)CCC2)cc(OC)c1OC,"inconclusive: 5.59 µM [inhibitor, partial curve]",
O=[N+]([O-])c1ccc(-c2ccc(/C=N/Nc3nc(NCc4ccccc4)nc(N4CCOCC4)n3)o2)cc1,"inconclusive: 18.4 µM [inhibitor, partial curve]",
CCN(CC)c1ccc2cc(-c3nc4sc5c(c4c(=O)[nH]3)CCC(C(C)(C)C)C5)c(=O)oc2c1 (configuration not stated),,inactive: 13.2%
CCN1CCN(Cc2ccc(NC(=O)c3ccc(C)c(/C=C/c4cnc(Nc5cc(N6CCNCC6)nc(C)n5)cn4)c3)cc2C(F)(F)F)CC1,"inconclusive: 29.1 µM [inhibitor, single point]",
CCN(CC)c1nc2cc(OC)ccc2cc1C#N,,inactive: -15.5%
COc1cc(/C=C(/C(=O)c2cccs2)c2nc3ccccc3[nH]2)ccc1O,"inconclusive: 17.7 µM [inhibitor, single point]",
COc1ccc2c(c1)c1nc3ccccc3nc1n2Cc1ccc(OC(C)C)c(OC)c1,"inconclusive: 23.1 µM [inhibitor, single point]",
COc1ccc(S(=O)(=O)NCc2ccccn2)cc1NC(=O)c1ccc(C)cc1,"inconclusive: 9.94 µM [inhibitor, partial curve]",
COc1ccc(N=c2oc3ccc(OC)cc3cc2-c2nc3ccccc3[nH]2)cc1,"inconclusive: 7.04 µM [inhibitor, partial curve]",

# Part of the list above, tab-delimited.
SMILES	Potency	max response
COc1cc(/C=C(/C(=O)c2cccs2)c2nc3ccccc3[nH]2)ccc1O	inconclusive: 17.7 µM [inhibitor, single point]	
COc1ccc2c(c1)c1nc3ccccc3nc1n2Cc1ccc(OC(C)C)c(OC)c1	inconclusive: 23.1 µM [inhibitor, single point]	

# The listing continues.

SMILES,Potency,max response
COc1ccc2[nH]c3c(c2c1)CCNC3c1ccc([N+](=O)[O-])o1 (configuration not stated),active: 23.1 µM,
O=C1c2cccc3c(N4CCCCC4)ccc(c23)C(=O)N1CCO,active: 15.8 µM,
COC(=O)c1cc(Nc2nc3ccccc3nc2NS(=O)(=O)c2ccc(C)cc2)ccc1Cl,,inactive: -5.41%
O=C(N/N=C/c1sc(=O)n(Cc2ccc(Br)cc2)c1Cl)c1ccco1,"inconclusive: 15.8 µM [inhibitor, single point]",
CCOC(=O)Nc1ccc2c3c(cccc13)-c1ccccc1-2,"inconclusive: 5.8 µM [inhibitor, partial curve]",
O=C(Cc1nc2ccccc2[nH]c1=O)c1ccc(Cl)cc1,active: 18.4 µM,
O=C1CC(c2cc(F)ccc2F)c2cc3c(cc2N1)CCC3 (configuration not stated),"inconclusive: 8.86 µM [inhibitor, partial curve]",
NNC(=S)Nc1c(F)cc(F)cc1Br,,inactive: 1.43%
COc1cc2c(cc1OC)CN(C(=O)c1cc(=O)c3ccccc3o1)CC2,"inconclusive: 17.7 µM [inhibitor, single point]",
C=C(C(=O)c1ccccc1)C(C(=C)C(=O)c1ccccc1)c1ccc(OC)cc1,"inconclusive: 6.27 µM [inhibitor, partial curve]",
CN1/C(=C\C=C2/SC(=S)NC2=O)C(C)(C)c2ccccc21,active: 4.44 µM,
O=C(CSc1nc2ccccc2s1)c1cc2ccccc2o1,,inactive: -2.01%
CC1=CC(C)(C)Nc2ccc(OC(=O)CCN3C(=O)c4ccccc4C3=O)cc21,"inconclusive: 22.3 µM [inhibitor, single point]",
C/C(=N\NC(=S)NC(C)C)c1ccc(C(C)(C)C)cc1,,inactive: -1.78%
CC(=O)Nc1ccc(CC(=O)NCCC(c2ccccc2)c2ccccc2)cc1,"inconclusive: 7.04 µM [inhibitor, partial curve]",
CS(=O)(=O)N1N=C(c2ccccc2)CC1c1ccc2c(c1)OCO2 (configuration not stated),active: 14 µM,
Cc1ccnc(NC(=S)NC(=O)/C=C/c2ccco2)c1,"inconclusive: 4.44 µM [inhibitor, full curve]",
COc1ccc(C2=NOC(C(=O)NCc3cccs3)C2)cc1OC (configuration not stated),"inconclusive: 2.5 µM [inhibitor, full curve, poor fit]",
CC(C)(C)NC(=S)N/N=C\c1ccc(-c2ccc([N+](=O)[O-])cc2)o1,active: 14.6 µM,
CCCCN1C(=O)/C(=C/C=C2\Oc3ccccc3N2CC)SC1=S,,inactive: -1.16%
CCOc1ccc(CCNC(=O)c2ccc(Cn3c(=O)c4cccn4c4cccnc43)cc2)cc1,active: 16.4 µM,
COc1ccc(/C=N/NC(=O)c2ccccc2Cl)cc1CSc1nc2ccccc2s1,"inconclusive: 2.23 µM [inhibitor, full curve]",
Cc1cc(NC(=O)NC(=O)c2ccccc2NC(=O)C(C)N)ccc1Oc1ncc(Br)cn1 (configuration not stated),"inconclusive: 1.4 µM [inhibitor, full curve]",
Cc1cc(C)n(-c2nc3c(c(=O)[nH]c(=O)n3C)n2CC(O)COc2ccc(Cl)cc2Cl)n1 (configuration not stated),"inconclusive: 2.23 µM [inhibitor, full curve]",

# Two compounds picked at random from those above:
SMILES,Potency,max response
Cc1ccc(C2=NN(C(=O)c3cccs3)C(c3ccccc3O)C2)cc1 (configuration not stated),,inactive: -0.929%
COc1cc(NC(=O)C2=C(N3CCOCC3)/C(=C\c3ccc(N(C)C)cc3)CCC2)cc(OC)c1OC,"inconclusive: 5.59 µM [inhibitor, partial curve]",

# — PubChem BioAssay AID651814 (National Center for Advancing Translational Sciences (NCATS), 2012)
